Taken from: PubChem BioAssay AID1259254 (NCATS, 2017)

Purpose: 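Finding genes that stop cells copying their DNA twice in one cycle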 (primary screen)
System: human HCT116 colorectal cancer cells
Reagent: single siRNA against human genes
Duration: 3 days
Measurement: 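Nuclei stained with Hoechst and imaged; cell-cycle phase assigned by DNA content; G2 share scaled per plate, non-targeting siRNA 0%, GMNN siRNA 100%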
Direction: G2 robust z-score and G2 cells, % of GMNN control: higher = more G2 cells, more excess DNA replication
Call rule: 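Active siRNAs have a G2 robust z of 5 or more median absolute deviations over the median, which in these data means about 38% or higher of GMNN control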
This is one part, drawn at random, of about 59,000 deposited reagents. Of all reagents, about 1,550 (2.6%) got an active call. 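G2 share is only a proxy for re-replication; each gene was hit by three separate siRNAs, and active genes were retested.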 A number with no mark means an inactive call. Reagents against one gene are numbered here. Not all columns of the deposit are shown. No sequences are given here. Not given: the amount of reagent.

gene symbol	reagent	G2 robust z-score	G2 cells, % of GMNN control
MRC1	1	-1.18	-5.36
MRC1	2	-1.17	-5.26
MRC1	3	2.91	23.5
TTI1	1	-0.394	0.197
TTI1	2	-0.0187	2.84
TTI1	3	3.67	28.8
PRL	1	-0.18	1.7
PRL	2	-1.16	-5.19
PRL	3	0.129	3.88
TMEM63B	1	0.554	6.86
TMEM63B	2	0.0859	3.57
TMEM63B	3	0.593	7.14
AAGAB	1	-0.212	1.48
AAGAB	2	0.559	6.9
AAGAB	3	-0.929	-3.57
CCNL2	1	1.39	12.7
CCNL2	2	-0.457	-0.245
CCNL2	3	-1.42	-7.01
ZNF629	1	-0.889	-3.29
ZNF629	2	0.868	9.08
ZNF629	3	-0.322	0.702
HMGN2P46	1	1.6	14.2
HMGN2P46	2	2.22	18.6
HMGN2P46	3	-0.0713	2.47
CKB	1	-1.58	-8.11
CKB	2	0.73	8.1
CKB	3	-0.0728	2.46
CNOT8	1	0.035	3.21
CNOT8	2	-0.855	-3.05
CNOT8	3	-0.757	-2.36
DXO	1	0.105	3.71
DXO	2	0.742	8.19
DXO	3	-1.28	-6.03
MELTF	1	-1.06	-4.5
MELTF	2	-0.79	-2.59
MELTF	3	-1.18	-5.31
USP22	1	4.38	33.8
USP22	2	2.48	20.4
USP22	3	-0.168	1.79
ZNF860	1	-0.221	1.42
ZNF860	2	-0.286	0.953
ZNF860	3	-0.121	2.12
ZNF860	4	1.85	16
ZNF860	5	0.0763	3.5
ZNF860	6	-0.366	0.394
GK2	1	-0.393	0.205
GK2	2	-0.555	-0.934
GK2	3	0.164	4.12
CEP290	1	1.81	15.7
CEP290	2	0.903	9.32
CEP290	3	0.394	5.74
MAN2A2	1	-0.875	-3.19
MAN2A2	2	1.56	13.9
MAN2A2	3	-0.38	0.291
PPIP5K2	1	-0.213	1.47
PPIP5K2	2	0.148	4.01
PPIP5K2	3	-0.828	-2.86
OR6N1	1	0.621	7.33
OR6N1	2	-0.729	-2.16
OR6N1	3	-0.0801	2.4
RUSC2	1	0.161	4.1
RUSC2	2	0.107	3.72
RUSC2	3	-0.615	-1.36
ELOVL2	1	0.433	6.01
ELOVL2	2	0.877	9.14
ELOVL2	3	1.71	15
CCKBR	1	-1.32	-6.34
CCKBR	2	-0.568	-1.03
CCKBR	3	-0.3	0.857
GIGYF2	1	-0.532	-0.779
GIGYF2	2	-0.07	2.47
GIGYF2	3	-0.564	-1
CPN1	1	6.97 (active)	52
CPN1	2	1.96	16.8
CPN1	3	1.76	15.3
OR10AG1	1	-0.853	-3.03
OR10AG1	2	2.04	17.3
OR10AG1	3	0.0491	3.31
SLC61A1	1	2.3	19.1
SLC61A1	2	0.763	8.34
SLC61A1	3	-0.00377	2.94
SBF2	1	-0.945	-3.68
SBF2	2	-0.409	0.0871
SBF2	3	-0.796	-2.63
CCDC71L	1	-0.835	-2.9
CCDC71L	2	0.286	4.98
CCDC71L	3	-0.313	0.765

Limited to “G2 cells, % of GMNN control” (6 entries from above):
PPIP5K2 #1 = 1.47
PPIP5K2 #2 = 4.01
PPIP5K2 #3 = -2.86
OR6N1 #1 = 7.33
OR6N1 #2 = -2.16
OR6N1 #3 = 2.4
